Results as given in PubChem BioAssay AID1688 (National Center for Advancing Translational Sciences (NCATS), 2009).
Hit rate of the full screen: of about 220,000 compounds, about 2,400 (1.1%) were called active. Inconclusive means that the source gave no clear call. Such entries were picked first, then a sample of the others. The call rests on the fitted dose curve; in most records, active means well fitted inhibition curve with a large enough effect; inconclusive means small, poorly fitted or top-dose-only effect, or effect the other way; inactive means no such curve, though single readings can be large or run the other way. Where the call is inconclusive, the potency comes from a doubtful curve fit.
On the % scale 0 is the no-effect control and ±100 the full control effect; potency means the concentration at half of the fitted maximal effect.

Assay: qHTS Multiplex Assay to Identify Dual Action Probes in a Cell Model of Huntington: Aggregate Formation (GFP); further: nearly all actives have a fitted effect of over 60% in size
Conditions: PC12 HttQ103-GFP aggregates, Acumen cytometry, 40 h; activity change, negative = inhibition: at 46.1 µM (top of the series) unless noted
Method in brief: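 Aggregates are detected as GFP objects 1–25 µm with signal 6 STDEV over background in lysates of induced PC12 cells. These carry Huntingtin exon 1 with 103 glutamines fused to GFP under an ecdysone promoter; compounds titrated.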
With `O=C(Cc1ccccc1)NC(NC(=O)Cc1ccccc1)c1cccc([N+](=O)[O-])c1` the Potency was inconclusive: 6.31 µM [activator, partial curve, poor fit]. With `COc1ccccc1N1CCN(C(=O)c2ccc(S(=O)(=O)N3CCCCCC3)cc2)CC1` the Potency was inconclusive: 35.5 µM [inhibitor, single point]. For `Cc1c(NC(=O)C(C)Sc2ccc3ccccc3n2)c(=O)n(-c2ccccc2)n1C` (stereo not given), the “activity change, negative = inhibition” value was inactive: 17.6%. With `O=C(Nc1ccc([N+](=O)[O-])cc1)Nc1ccc(OC(F)F)c(Cl)c1` the Potency was active: 11.2 µM. In the case of `Cn1nc(C(=O)NCc2cccs2)c2ccccc2c1=O`, the Potency is reported as inconclusive: 12.6 µM [activator, single point]. For `CCOc1ccc2[nH]cc(S(=O)(=O)c3ccc(Cl)cc3)c(=O)c2c1`, the Potency was inconclusive: 2.82 µM [inhibitor, partial curve]. In the case of `COc1ccc(C(=O)c2sc3nc(-c4ccc(OC)cc4)ccc3c2N)cc1`, the “activity change, negative = inhibition” value is reported as inactive: -5.58%. For `COc1ccc2nc(NC(C)=O)sc2c1`, the Potency was inconclusive: 1 µM [activator, single point]. With `COc1cc(NC(=O)c2csc(N)n2)cc(C(=O)Nc2cccc(C(F)(F)F)c2)c1` the Potency was inconclusive: 3.16 µM [inhibitor, partial curve]. For `O=C(NCc1ccc2c(c1)OCO2)Oc1ccccc1`, the Potency was inconclusive: 17.8 µM [inhibitor, single point]. In the case of `Clc1ccccc1Cn1c(/C=C/c2ccco2)nc2ccccc21`, the Potency is reported as inconclusive: 25.1 µM [activator, partial curve]. With `O=C(Nc1ccccc1)C1=C(c2ccccc2)S(=O)(=O)CCS1(=O)=O` the Potency was active: 5.01 µM. With `CCOC(=O)c1sc(NC(=O)c2cc(-c3ccccc3C)nc3ccccc23)c(C#N)c1C` the Potency was active: 5.62 µM. In the case of `CC(C)(C)OC(=O)N1CCC[C@H]1c1nnc(SCc2ccc(Cl)cc2Cl)o1`, the Potency is reported as inconclusive: 15.8 µM [inhibitor, single point]. In the case of `Cc1cc(C2N=C(N)Nc3nc4ccccc4n32)c(C)n1-c1ccccc1Cl` (stereo not given), the Potency is reported as inconclusive: 35.5 µM [inhibitor, single point]. In the case of `C=CCc1cccc(/C=N/NC(=O)CNc2cccc3ccccc23)c1O`, the “activity change, negative = inhibition” value is reported as inactive: 24.7%. In the case of `CC(C)OC(=O)CC(=O)CSc1nc2c(c(-c3cccs3)c1C#N)CCC2`, the Potency is reported as active: 11.2 µM. With `COC(=O)C(C)Sc1nc2c(c(=O)n1-c1ccccc1)SCC2` (stereo not given) the “activity change, negative = inhibition” value was inactive: 13.9%. With `O=[N+]([O-])c1ccc(NC(=S)NCCc2ccc(Cl)cc2)cc1` the Potency was inconclusive: 35.5 µM [inhibitor, single point]. For `Cc1nc(N2CCC(C)CC2)c2oc3ccccc3c2n1`, the Potency was inconclusive: 25.1 µM [inhibitor, single point]. With `CN(CCO)c1cc(N2CCCCC2)c2nonc2c1[N+](=O)[O-]` the “activity change, negative = inhibition” value was inactive: 9.38%. In the case of `Cc1nnsc1SCCNC(=O)Nc1ccc(Cl)cc1`, the Potency is reported as inconclusive: 11.2 µM [inhibitor, single point]. With `O=C(CCCCCn1c(=O)[nH]c2ccccc2c1=O)N1CCN(Cc2ccc3c(c2)OCO3)CC1` the Potency was active: 12.6 µM. For `Cc1[nH]c2ccccc2c1C(=O)/C=C/c1ccccc1`, the Potency was inconclusive: 10 µM [activator, partial curve]. With `O=C(CSc1n[nH]c(-c2ccccc2)n1)Nc1ccc(Br)cn1` the Potency was inconclusive: 12.6 µM [activator, partial curve, poor fit]. In the case of `Cc1sc(-n2c(C)ccc2C)c(C#N)c1C`, the Potency is reported as inconclusive: 14.1 µM [activator, single point]. In the case of `CCOC(=O)CCSCC(=O)Nc1cc(C)on1`, the Potency is reported as inconclusive: 0.501 µM [inhibitor, full curve, poor fit]. With `Cn1c2ccccc2c(=O)c2c(=O)n(Cc3ccccc3)c(-c3ccc(F)cc3)nc21` the activity change, negative = inhibition was inactive: 8.61% [at 9.22 µM]. For `CCOc1ccc(NC(=S)NCc2ccco2)cc1`, the Potency was inconclusive: 20 µM [inhibitor, partial curve]. For `Cc1c(C#N)c(NC(=O)CCl)n(Cc2cccs2)c1C`, the Potency was active: 20 µM. With `CC(C)(C)C(=O)Nc1ccc(C(=O)OC2CCCCC2)cc1` the Potency was inconclusive: 17.8 µM [inhibitor, single point]. For `CC(C)c1c(C#N)c(N)nc(SCC(=O)c2cc3ccccc3oc2=O)c1C#N`, the Potency was inconclusive: 35.5 µM [inhibitor, single point]. With `Cc1ccc(CNC(=O)C2CCN(S(=O)(=O)N3CCCCC3)CC2)cc1` the “activity change, negative = inhibition” value was inactive: 0.959%. For `CC1(C)Cc2c(sc3c2c(=N)n(Cc2ccco2)c(=O)n3Cc2ccccc2)CO1`, the Potency was inconclusive: 2.51 µM [inhibitor, partial curve]. With `CCCNc1nc2c(c(=O)n(C)c(=O)n2C)n1CCc1ccccc1` the Potency was inconclusive: 6.31 µM [inhibitor, partial curve]. In the case of `COc1ccc(CCNC(=O)C(=O)NCc2ccc(Cl)cc2)cc1OC`, the “activity change, negative = inhibition” value is reported as inactive: 2.68%. For `CC(=O)Nc1ccc(NC(=O)c2ccc(Cn3cc(Cl)cn3)cc2)cc1`, the Potency was inconclusive: 1.26 µM [activator, single point]. For `O=C1NN=C(CSc2n[nH]c(=S)s2)CS1`, the Potency was inconclusive: 1.26 µM [inhibitor, single point]. In the case of `O=C(/C=C/c1ccc(Cl)cc1)N1CCN(c2ccc(Cl)cc2[N+](=O)[O-])CC1`, the Potency is reported as inconclusive: 10 µM [inhibitor, partial curve, poor fit]. For `CC1(C)OC(=O)N(c2ccccc2)C12C=Cc1c(ccc3ccccc13)O2` (stereo not given), the Potency was inconclusive: 14.1 µM [inhibitor, single point]. For `CCc1cc(C(=O)O)c(NC(=O)/C=C/c2ccc(OC)c(OC)c2)s1`, the Potency was inconclusive: 35.5 µM [activator, single point]. In the case of `C=CCSc1nc2ccccc2n1C(=O)/C=C/c1cc(OC)c(OC)c(OC)c1`, the Potency is reported as inconclusive: 35.5 µM [inhibitor, single point]. With `O=C(NNC(=O)c1cccs1)c1ccc(S(=O)(=O)N2CCCCC2)cc1` the Potency was inconclusive: 35.5 µM [inhibitor, single point]. With `COc1ccc(N2C(=O)CSC2c2cccs2)cc1` (stereo not given) the “activity change, negative = inhibition” value was inactive: 13.2%. For `Cc1ccc(S(=O)(=O)N2CCN(Cc3cc(C(C)C)ccc3O)CC2)cc1`, the Potency was inconclusive: 31.6 µM [inhibitor, single point].
